Source: PubChem BioAssay AID1259308 (NCATS, 2017)

- Assay: 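Candidate targets for better recombinant protein yield in mammalian cells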 (primary screen)
- Cell system: human HEK293 embryonic kidney cells stably expressing firefly luciferase (HEK-CMV-Luc2-Hygro)
- Reagents: single siRNA against human genes, 0.8 pmol siRNA per well
- Time to read-out: 72 h
- Read-out: 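Reporter luminescence and viable-cell signal on separate replicate plates, given as percent of non-targeting control and median/MAD z-scores, plus per-cell luciferase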
- Reading the numbers: total luciferase, z-score: higher = more reporter protein produced
- Rule for the call: 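Active when the median/MAD z-score for overall luciferase is greater than 3; a gene was taken forward for validation with new siRNAs if at least two of its three siRNAs passed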
- Calls: active = raised luciferase; inactive = no rise
In all, the deposit lists about 59,000 reagents; below is an unselected part. In the full data, about 1,510 (2.6%) got an active call. 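Calls use total luciferase alone and ignore viability, so some active siRNAs may act by altering cell number.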 Unmarked entries are inactive. The numbers tell different reagents against one gene apart. Further read-outs or replicates are left out here.

For DSC2 (desmocollin 2) #1, the entry reads total luciferase, z-score -0.211. For DSC2 (desmocollin 2) #2, the values are total luciferase, z-score -0.633. Against DSC2 (desmocollin 2) #3, the values are total luciferase, z-score -1.15. CD82 (CD82 molecule) #1 gave total luciferase, z-score 0.56. CD82 (CD82 molecule) #2 gave total luciferase, z-score 0.525. Against CD82 (CD82 molecule) #3, the entry reads total luciferase, z-score 2.19.

Silencing of SYNGAP1 (synaptic Ras GTPase activating protein 1) #1 gave: total luciferase, z-score -0.836. Against SYNGAP1 (synaptic Ras GTPase activating protein 1) #2, the values are total luciferase, z-score -0.908. Knock-down of SYNGAP1 (synaptic Ras GTPase activating protein 1) #3 gave: total luciferase, z-score -0.732. After knock-down of PSMA3 (proteasome 20S subunit alpha 3) #1 the results were total luciferase, z-score 0.613. Against PSMA3 (proteasome 20S subunit alpha 3) #2 the deposit lists total luciferase, z-score -1.79. Depletion of PSMA3 (proteasome 20S subunit alpha 3) #3 gave: total luciferase, z-score -0.885.

After knock-down of RPS18P5 (ribosomal protein S18 pseudogene 5) #1, the screen gave total luciferase, z-score 0.531. Knock-down of RPS18P5 (ribosomal protein S18 pseudogene 5) #2 resulted in: total luciferase, z-score 0.233. Against RPS18P5 (ribosomal protein S18 pseudogene 5) #3, the values are total luciferase, z-score -0.0244. Knock-down of PHLDA1 (pleckstrin homology like domain family A member 1) #1 resulted in: total luciferase, z-score -0.209. With knock-down of PHLDA1 (pleckstrin homology like domain family A member 1) #2 the results were total luciferase, z-score -1.27. For PHLDA1 (pleckstrin homology like domain family A member 1) #3 the deposit lists total luciferase, z-score -0.756.

With knock-down of IL12B (interleukin 12B) #1 the results were total luciferase, z-score -0.296. Silencing of IL12B (interleukin 12B) #2 came out at: total luciferase, z-score 0.0654. Silencing of IL12B (interleukin 12B) #3 resulted in: total luciferase, z-score 1.02.
